The chains behind the UniProt entries cited, without tags or fusion partners.
UniProt Q9Y463, whole entry: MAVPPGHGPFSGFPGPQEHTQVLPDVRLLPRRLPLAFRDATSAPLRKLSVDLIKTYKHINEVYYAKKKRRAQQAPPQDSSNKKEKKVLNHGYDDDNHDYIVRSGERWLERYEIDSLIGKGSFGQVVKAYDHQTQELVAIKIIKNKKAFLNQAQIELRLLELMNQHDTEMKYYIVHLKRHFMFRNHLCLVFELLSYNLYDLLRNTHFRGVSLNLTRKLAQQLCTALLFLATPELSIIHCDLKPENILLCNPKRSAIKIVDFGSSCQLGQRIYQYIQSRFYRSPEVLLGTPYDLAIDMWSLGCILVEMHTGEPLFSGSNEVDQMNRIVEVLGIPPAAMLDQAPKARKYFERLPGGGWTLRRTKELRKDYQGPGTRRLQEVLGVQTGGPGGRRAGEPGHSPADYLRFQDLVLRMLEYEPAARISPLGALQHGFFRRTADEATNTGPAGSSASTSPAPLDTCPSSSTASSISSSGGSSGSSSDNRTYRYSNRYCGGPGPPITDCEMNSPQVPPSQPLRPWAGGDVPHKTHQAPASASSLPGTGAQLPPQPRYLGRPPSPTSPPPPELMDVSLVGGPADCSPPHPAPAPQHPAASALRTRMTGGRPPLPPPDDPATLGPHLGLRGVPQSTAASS

In paper PMC8708872, “Discovery of a Novel Template, 7-Substituted 7-Deaza-4′-Thioadenosine Derivatives as Multi-Kinase Inhibitors” (Pharmaceuticals, 2021):

Biological target: T1, DYRK1B (Homo sapiens, UniProt Q9Y463)
T1 construct: purchased Eurofins DiscoverX Corporation
Assay: Kinase inhibition profile, KINOMEscan 11-point dose response
Format: binding

`COc1ccc2c(c1)[nH]c1c(C)nccc12` [Harmine, reference compound] showed an IC50 (11-point 3-fold serial dilution) of 85 nM and a Ki (by Cheng-Prusoff equation) of 85 nM.
